This is an account of results in paper PMC13042984.

Chains of the proteins cited; added tags and fusions are not shown. Lines headed by an entry give the natural chain unless they say otherwise; changes in a name come on top. Chains listed by the source or under a name are the forms on record and can include a tag or linker.
UniProt P48382: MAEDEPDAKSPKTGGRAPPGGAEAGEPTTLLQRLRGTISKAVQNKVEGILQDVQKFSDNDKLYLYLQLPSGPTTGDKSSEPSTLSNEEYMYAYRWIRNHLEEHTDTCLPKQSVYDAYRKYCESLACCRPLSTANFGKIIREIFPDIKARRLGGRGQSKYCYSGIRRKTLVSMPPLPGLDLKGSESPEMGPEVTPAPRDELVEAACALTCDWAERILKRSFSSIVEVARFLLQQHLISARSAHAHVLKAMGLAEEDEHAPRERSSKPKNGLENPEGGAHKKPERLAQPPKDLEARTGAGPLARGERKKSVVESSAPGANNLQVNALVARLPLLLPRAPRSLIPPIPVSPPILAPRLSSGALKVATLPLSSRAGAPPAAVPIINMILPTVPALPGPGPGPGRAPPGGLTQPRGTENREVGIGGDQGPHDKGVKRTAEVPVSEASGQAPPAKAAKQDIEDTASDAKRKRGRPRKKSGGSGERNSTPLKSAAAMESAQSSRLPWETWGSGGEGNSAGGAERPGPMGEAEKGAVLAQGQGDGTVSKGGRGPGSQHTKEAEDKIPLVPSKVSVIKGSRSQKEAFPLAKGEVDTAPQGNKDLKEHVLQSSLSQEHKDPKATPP
UniProt Q96JM7: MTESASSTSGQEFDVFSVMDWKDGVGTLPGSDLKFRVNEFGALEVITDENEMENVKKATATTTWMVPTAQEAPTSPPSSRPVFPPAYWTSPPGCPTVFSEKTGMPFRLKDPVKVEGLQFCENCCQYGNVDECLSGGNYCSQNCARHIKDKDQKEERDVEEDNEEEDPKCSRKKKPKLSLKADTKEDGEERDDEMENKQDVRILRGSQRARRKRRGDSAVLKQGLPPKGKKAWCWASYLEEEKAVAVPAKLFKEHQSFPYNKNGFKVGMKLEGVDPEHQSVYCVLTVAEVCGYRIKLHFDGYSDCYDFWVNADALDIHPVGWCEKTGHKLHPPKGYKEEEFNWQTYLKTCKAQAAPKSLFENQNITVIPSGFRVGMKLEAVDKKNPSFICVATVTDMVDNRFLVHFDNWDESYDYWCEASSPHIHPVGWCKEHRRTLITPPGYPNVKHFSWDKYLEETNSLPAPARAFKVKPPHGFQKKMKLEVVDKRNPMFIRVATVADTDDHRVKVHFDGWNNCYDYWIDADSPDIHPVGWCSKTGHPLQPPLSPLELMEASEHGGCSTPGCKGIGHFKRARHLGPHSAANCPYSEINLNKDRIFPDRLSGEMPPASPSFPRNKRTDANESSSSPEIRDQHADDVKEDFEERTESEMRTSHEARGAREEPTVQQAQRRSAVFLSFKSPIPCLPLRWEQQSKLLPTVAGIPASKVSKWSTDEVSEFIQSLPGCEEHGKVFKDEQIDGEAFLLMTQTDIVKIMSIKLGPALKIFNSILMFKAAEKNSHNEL
MBP-MYC (Homo sapiens), one chain, as listed by the source: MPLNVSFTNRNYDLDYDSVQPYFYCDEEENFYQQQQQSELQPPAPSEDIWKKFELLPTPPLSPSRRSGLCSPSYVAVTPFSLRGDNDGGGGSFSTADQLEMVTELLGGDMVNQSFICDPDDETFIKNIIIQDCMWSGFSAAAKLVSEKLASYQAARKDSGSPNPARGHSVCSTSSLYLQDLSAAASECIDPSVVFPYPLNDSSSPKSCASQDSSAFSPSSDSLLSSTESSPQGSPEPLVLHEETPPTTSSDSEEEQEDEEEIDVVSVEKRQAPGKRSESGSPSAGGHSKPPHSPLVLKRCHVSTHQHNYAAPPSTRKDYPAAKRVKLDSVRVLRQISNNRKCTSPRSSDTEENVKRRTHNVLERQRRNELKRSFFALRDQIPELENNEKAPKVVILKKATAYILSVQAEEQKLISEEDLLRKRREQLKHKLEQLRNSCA

One series has as its target MBP-MBD2 (Homo sapiens) (UniProt Q9UBB5). In words: pull-down western blot. The settings on record: 1 nM in HEK293T nuclear extract; none; pulldown: 50 mM Tris pH 8, 150 mM NaCl, 1 mM DTT, 0.25% IGEPAL, dA:dT competitor, 4 C overnight; recombinant protein; protein details: N-terminal MBP.
Series [1] has as its target T1, MBP-RFXANK (Homo sapiens) (UniProt O14593).
T1 sequence (looked up): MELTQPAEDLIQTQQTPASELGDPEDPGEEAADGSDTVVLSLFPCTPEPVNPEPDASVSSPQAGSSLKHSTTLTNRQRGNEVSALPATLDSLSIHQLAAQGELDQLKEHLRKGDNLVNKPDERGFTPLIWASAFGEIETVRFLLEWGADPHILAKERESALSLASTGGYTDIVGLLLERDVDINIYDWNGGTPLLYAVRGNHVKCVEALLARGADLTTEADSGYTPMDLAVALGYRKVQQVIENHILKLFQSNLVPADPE
In words: pull-down dot blot. To be noted: none; pulldown: 50 mM Tris pH 8, 150 mM NaCl, 1 mM DTT, 0.25% IGEPAL, dA:dT competitor, 4 C overnight; protein in a lysate after overexpression; residues 1-260; protein details: N-terminal MBP, C-terminal His.

The next series relates to MBP-MYC (Homo sapiens). The series is described as follows: pull-down dot blot. To be noted: none; pulldown: 50 mM Tris pH 8, 150 mM NaCl, 1 mM DTT, 0.25% IGEPAL, dA:dT competitor, 4 C overnight; protein in a lysate after overexpression; residues 1-439; protein details: N-terminal MBP, C-terminal His.
For another series, the target named is MBP-RFX5 (Homo sapiens) (UniProt P48382). The series is described as follows: pull-down dot blot. To be noted: none; pulldown: 50 mM Tris pH 8, 150 mM NaCl, 1 mM DTT, 0.25% IGEPAL, dA:dT competitor, 4 C overnight; protein in a lysate after overexpression; residues 1-616; protein details: N-terminal MBP, C-terminal His.
A further series addresses MBP-MAX (Homo sapiens) (UniProt P61244). In words: pull-down dot blot. To be noted: none; pulldown: 50 mM Tris pH 8, 150 mM NaCl, 1 mM DTT, 0.25% IGEPAL, dA:dT competitor, 4 C overnight; protein in a lysate after overexpression; residues 1-160; protein details: N-terminal MBP, C-terminal His.
In series [2] the target is MBP-L3MBTL3 (Homo sapiens) (UniProt Q96JM7). The series is described as follows: pull-down dot blot. To be noted: low DNA binding; none; pulldown: 50 mM Tris pH 8, 150 mM NaCl, 1 mM DTT, 0.25% IGEPAL, dA:dT competitor, 4 C overnight; protein in a lysate after …; residues 1-780; protein details: N-terminal MBP, C-terminal His.
For the next series, the target named is T2, MBP-TFAM (Homo sapiens) (UniProt Q00059).
T2 sequence (looked up): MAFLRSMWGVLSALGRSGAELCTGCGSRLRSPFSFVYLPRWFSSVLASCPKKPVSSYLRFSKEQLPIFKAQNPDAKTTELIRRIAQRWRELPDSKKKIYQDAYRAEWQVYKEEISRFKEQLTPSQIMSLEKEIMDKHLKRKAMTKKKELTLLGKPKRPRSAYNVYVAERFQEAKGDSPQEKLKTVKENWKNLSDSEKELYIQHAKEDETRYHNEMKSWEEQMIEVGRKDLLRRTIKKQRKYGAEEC
The series is described as follows: pull-down dot blot. To be noted: low DNA binding; none; pulldown: 50 mM Tris pH 8, 150 mM NaCl, 1 mM DTT, 0.25% IGEPAL, dA:dT competitor, 4 C overnight; protein in a lysate after …; residues 1-246; protein details: N-terminal MBP, C-terminal His.

The next series concerns the target MBP-SUB1 (Homo sapiens) (UniProt P53999). In words: pull-down dot blot. To be noted: low DNA binding; none; pulldown: 50 mM Tris pH 8, 150 mM NaCl, 1 mM DTT, 0.25% IGEPAL, dA:dT competitor, 4 C overnight; protein in a lysate after …; residues 1-127; protein details: N-terminal MBP, C-terminal His.

For some assays here: Where cells or extracts were used, other partners may take part. For some assays here: Negatives hold for the conditions tested. For some assays here: At least one verdict was read from the data and is not stated in words by the source. For some assays here: Tags and fusion partners may be left off the protein sequences shown. For some assays here: Construct, isoform or probe ends are uncertain for at least one entry. For some assays here: A weaker result is weaker than the reference pair of the same experiment.

With “TTTCCAAAGCCCATTCCCTCTTTAGCCAGAGCCGGGGTGTGCAGACGGCAGTCACTAGGGGGCGCTCGGCCACCACAGGGAAGCTGGGTGAATGGAGCGAGCAGCGTCTTCGAGAGTGAGGACGTGTGTGTCTGTGTGGGTGAGTGAGTGTGTGCGTGTGGGGTTGAGGGCGTTGGAGCGGGGAGAAGGCCAGGGGTCACT (double strand) [VEGFA PCR probe C/C]”, the binding result with MBP-MBD2 (Homo sapiens) is “no binding”; in series [1] it was “no binding”; in the series with MBP-MYC (Homo sapiens), “binds”; with MBP-RFX5 (Homo sapiens) it was “binds more weakly”; with MBP-MAX (Homo sapiens) it was “binds”; in series [2] it was “binds more weakly”. Moreover, the binding result in the series with MBP-TFAM (Homo sapiens) and with MBP-SUB1 (Homo sapiens) was “binds more weakly” in each case.
